Results as given in PubChem BioAssay AID1688 (National Center for Advancing Translational Sciences (NCATS), 2009).
Hit rate of the full screen: of about 220,000 compounds, about 2,400 (1.1%) were called active. The shares of active, inactive and inconclusive entries below differ from those in the screen. The call rests on the fitted dose curve; in most records, active means well fitted inhibition curve with a large enough effect; inconclusive means small, poorly fitted or top-dose-only effect, or effect the other way; inactive means no such curve, though single readings can be large or run the other way. Where the call is inconclusive, the potency comes from a doubtful curve fit.

Assay: qHTS Multiplex Assay to Identify Dual Action Probes in a Cell Model of Huntington: Aggregate Formation (GFP); further: nearly all actives have a fitted effect of over 60% in size
Conditions: PC12 HttQ103-GFP aggregates, Acumen cytometry, 40 h; activity change, negative = inhibition: at 46.1 µM (top of the series) unless noted
In short: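 PC12 cells with ecdysone-inducible HTT exon1 Q103-GFP, induced by 100 nM tebufenozide, given compounds in a concentration series. GFP aggregates (1–25 um, 6 SD above background) counted in lysates by laser-scanning cytometry, 488 nm excitation.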
On the % scale 0 is the no-effect control and ±100 the full control effect; potency means the concentration at half of the fitted maximal effect.

Structure (SMILES)	activity change, negative = inhibition	Potency
O=[N+]([O-])c1ccc([N+](=O)[O-])c(Nc2ccc(N3CCOCC3)cc2)c1	inactive: 12.5%	–
CCn1c(CN2CCN(c3ccc(Cl)cc3)CC2)nc2ccccc21	–	inconclusive: 35.5 µM [inhibitor, single point]
COc1ccc(CNC(=S)N/N=C/c2ccc(OC)c(OC)c2)cc1	–	inconclusive: 35.5 µM [activator, single point]
Cc1cccc(-c2nnc(-c3cccc(NC(=O)Cc4cccs4)c3)o2)c1	–	inconclusive: 20 µM [inhibitor, single point]
[O-]/C(=C(\C(=S)Nc1cccc2ccccc12)[n+]1ccccc1)c1ccc(OC(F)F)cc1	inactive: -0.492%	–
O=C1CCCC(O)=C1N=Nc1ccc(S(=O)(=O)N2CCOCC2)cc1	inactive: -29.6% [at 9.22 µM]	–
CC[n+]1ccc(C(=O)NCc2ccccc2)cc1	inactive: -6.98%	–
COc1ccc(C(C(=O)NC2CCCCC2)N(C(=O)CCl)c2ccc(C)cc2)cc1 (stereo not drawn)	–	inconclusive: 35.5 µM [inhibitor, single point]
CN(C)S(=O)(=O)c1cccc(NC(=O)COC(=O)c2cc(=O)c3ccccc3o2)c1	inactive: -3.31% [at 9.22 µM]	–
O=C(O)c1ccccc1OP(=O)(O)O	inactive: -2.99%	–
O=C(NC1CCCCC1)C(c1ccncc1)N(Cc1ccccc1)C(=O)c1ccc(-c2ccccc2)[nH]1 (stereo not drawn)	–	inconclusive: 35.5 µM [inhibitor, single point]
O=C(CSc1ccc(-c2ccco2)nn1)NCc1ccccc1	–	inconclusive: 35.5 µM [activator, single point]
O=C(C1=C[C@@H](c2ccc(C(F)(F)F)cc2)C[C@@H](OCc2ccc(CO)cc2)O1)N1CCN(Cc2ccc3c(c2)OCO3)CC1	inactive: 10.1% [at 9.22 µM]	–
Cc1cc(-c2c(C)[nH]n(-c3ccccc3)c2=O)n[nH]1	–	inconclusive: 12.6 µM [inhibitor, single point]
Cc1cc(O)c(C(C)C)cc1NS(=O)(=O)c1ccccc1	–	active: 5.01 µM
Cc1nn(CCc2nn[nH]n2)c2nc(-c3ccc(Br)cc3)cc(C(F)(F)F)c12	–	inconclusive: 0.891 µM [inhibitor, partial curve]
Cc1ccc(C(=O)N2CCC3(CC2)Oc2ccc(F)cc2C(=O)C32CC(c3ccc(Cl)cc3)=NO2)s1 (stereo not drawn)	–	inconclusive: 8.91 µM [inhibitor, partial curve, poor fit]
O=C(CSc1ccccc1Cl)N1CCC(c2nc3ccccc3s2)CC1	–	inconclusive: 22.4 µM [inhibitor, single point]
Cc1cc(C(=O)CSc2nncs2)c(C)n1-c1c(C)n(C)n(-c2ccccc2)c1=O	–	inconclusive: 2.51 µM [activator, partial curve]
Cc1nc2ccc(NC(=O)c3ccc(Cl)c([N+](=O)[O-])c3)cc2s1	–	inconclusive: 0.0316 µM [inhibitor, full curve, poor fit]
Cc1nc2ccccc2n1-c1ccccc1	–	inconclusive: 11.2 µM [inhibitor, partial curve]
O=C(CCCn1c(SCc2cccc(F)c2)nc2ccccc2c1=O)NCC1CCCO1 (stereo not drawn)	inactive: -1.14%	–
O=C1C=C(NCc2ccc(Cl)c(Cl)c2)C2(CCCCC2)O1	–	inconclusive: 35.5 µM [inhibitor, single point]

Structure (SMILES)	activity change, negative = inhibition	Potency
CC(=O)c1ccc(OCC(O)Cn2nnc3ccccc32)cc1 (stereo not drawn)	inactive: -10.3%	–
O=C(Nc1nnc(SCc2ccc(Cl)cc2)s1)c1cnccn1	–	inconclusive: 31.6 µM [inhibitor, single point]
CC(=O)Nc1cc2nn(-c3ccccc3)nc2cc1Cl	–	inconclusive: 5.62 µM [inhibitor, single point]
COc1ccc(C)cc1C(=O)CCC(=O)Nc1ccccc1N1CCOCC1	–	active: 12.6 µM
CCOc1ccc(Nc2nc(Cl)nc(N3CCN(c4ccc(OC)cc4)CC3)n2)cc1	–	inconclusive: 28.2 µM [inhibitor, single point]
CCC(Sc1nc(C)cc(=O)[nH]1)C(=O)Nc1nc(-c2ccccc2)cs1 (stereo not drawn)	–	inconclusive: 11.2 µM [inhibitor, single point]
COCC(C)NC(=O)c1ccc(N(C)C)cc1 (stereo not drawn)	–	inconclusive: 3.55 µM [activator, single point]
COCCN(CCOC)c1cc(C)c(C#N)c2nc3ccccc3n12	inactive: 2.33%	–
CC1(C)Cc2c(C#N)c(N3CCN(C(=O)c4ccccc4)CC3)nc(Cc3ccccc3)c2CO1	–	active: 22.4 µM
Cc1[nH]c2ccccc2c1/C=N/NC(=O)c1cccc(S(=O)(=O)Nc2cccc(C(F)(F)F)c2)c1	–	inconclusive: 35.5 µM [inhibitor, single point]
CN(C)c1ccc(CN(C(=O)COc2ccc(Br)cc2)C2CCS(=O)(=O)C2)cc1 (stereo not drawn)	inactive: -0.979%	–
COc1ccc(COc2ccsc2C(=O)Nc2ccc(Cl)c(Cl)c2)cc1	inactive: -26.7%	–
COc1ccc(-c2cc(=O)oc3cc(OC(=O)C4CCCCC4)ccc23)cc1	–	inconclusive: 6.31 µM [inhibitor, partial curve]
CC(C(=O)N1c2ccccc2Sc2ccccc21)n1nnc(-c2cccs2)n1 (stereo not drawn)	–	active: 3.98 µM
O=C(c1cc2c(cc1Br)OCCCO2)N1CCCCC1	inactive: -7.14%	–
Cc1cc(-c2nnc(-c3cccc(C(F)(F)F)c3)o2)no1	–	inconclusive: 5.62 µM [inhibitor, single point]
CN1CCN(CCC=C2c3ccccc3Sc3ccc(S(=O)(=O)N(C)C)cc32)CC1	–	inconclusive: 35.5 µM [inhibitor, single point]
O=C(C#Cc1ccccc1)c1cccc([N+](=O)[O-])c1	–	active: 12.6 µM
CCCCc1cc(=O)oc2cc(C)cc(O)c12	–	inconclusive: 35.5 µM [inhibitor, single point]
O=C(N1CCN(c2ccccc2F)CC1)C12CC3CC(CC(C3)C1)C2	inactive: 15.1%	–
CSc1nc(NCCOCCO)c2sc3nc(-c4ccco4)c4c(c3c2n1)CCC4	–	inconclusive: 35.5 µM [activator, single point]
O=C(c1ccccc1Br)N1CCCC(c2nc(-c3cccs3)no2)C1 (stereo not drawn)	–	inconclusive: 20 µM [inhibitor, single point]
CN(C(=S)Nc1ccc(SC(F)F)cc1)c1ccc(O)cc1	–	inconclusive: 31.6 µM [activator, single point]

Rewritten in markdown: part of the list above.

| Structure (SMILES) | activity change, negative = inhibition | Potency |
| --- | --- | --- |
| CC(=O)c1ccc(OCC(O)Cn2nnc3ccccc32)cc1 (stereo not drawn) | inactive: -10.3% | – |
| CC1(C)Cc2c(C#N)c(N3CCN(C(=O)c4ccccc4)CC3)nc(Cc3ccccc3)c2CO1 | – | active: 22.4 µM |
| CSc1nc(NCCOCCO)c2sc3nc(-c4ccco4)c4c(c3c2n1)CCC4 | – | inconclusive: 35.5 µM [activator, single point] |

Later entries:

Structure (SMILES)	activity change, negative = inhibition	Potency
Cc1ccc(C)c(CSc2nnc(-c3ccccn3)n2N)c1	–	inconclusive: 35.5 µM [inhibitor, single point]
Clc1ccc(-c2nnc(COc3ncnc4ccccc34)o2)cc1	–	inconclusive: 11.2 µM [inhibitor, single point]
O=C1CCc2ccccc2N1	inactive: 13.5% [at 9.22 µM]	–
CC1=C(CO)C(=O)OC([C@@H](C)C2CC[C@H]3C4C[C@H]5O[C@]56[C@@H](O)C=CC(=O)[C@]6(C)C4CC[C@]23C)C1 (stereo partly drawn)	–	inconclusive: 0.316 µM [activator, full curve, poor fit]
Cc1cc(-c2ccccc2)n(-c2cc(N/N=C/c3ccccc3O)ncn2)n1	–	active: 8.91 µM
Cc1noc(C)c1COC(=O)c1cc(C)n(-c2ccccc2)c1C	–	inconclusive: 12.6 µM [inhibitor, partial curve, poor fit]
CC1Cc2ccccc2N1C(=O)CN1C(=O)CN(C)C(=O)c2ccccc21 (stereo not drawn)	inactive: 4.08% [at 9.22 µM]	–
CCN(CCNC(=O)C1CCN(Cc2nc(-c3ccc(Cl)cc3)oc2C)CC1)c1ccccc1	–	inconclusive: 28.2 µM [inhibitor, single point]
COc1cc2[nH]c(=O)n(C3CCCCC3)c(=O)c2cc1OC	–	inconclusive: 11.2 µM [activator, partial curve]
COc1ccc(OC)c(C(=O)CC2OC(=O)c3ccccc32)c1 (stereo not drawn)	–	inconclusive: 35.5 µM [activator, single point]
Fc1ccc(Br)cc1C1C=C(c2ccc(Br)s2)Nc2ncnn21 (stereo not drawn)	–	inconclusive: 31.6 µM [inhibitor, single point]
Cc1nn(C)c(Cl)c1NC(=O)OCc1ccc(Cl)cc1Cl	–	active: 7.94 µM
CS(=O)(=O)N1CCc2cc(S(=O)(=O)Nc3ccc4c(c3)OCCO4)ccc21	–	inconclusive: 10 µM [inhibitor, partial curve]
COc1cc(/C=C/c2sc3ccccc3[n+]2CCCS(=O)(=O)[O-])ccc1O	–	inconclusive: 7.08 µM [activator, partial curve]
CCCC(=O)N(C1CC(C)C(C#N)(C#N)C1(C#N)C#N)N(C)C (stereo not drawn)	–	inconclusive: 5.62 µM [inhibitor, single point]
CCOC(=O)N1CCN(C(=O)C2CCN(C(=O)c3cc4sccc4n3CC)CC2)CC1	–	inconclusive: 0.562 µM [activator, full curve, poor fit]
Cc1ccc(C(=O)c2ccc(O)cc2)cc1C	–	inconclusive: 0.794 µM [inhibitor, partial curve]
COc1cc(CCNc2ccc3nnc(-c4ccccc4)n3n2)cc(OC)c1OC	–	inconclusive: 7.08 µM [activator, partial curve]
Cc1cc2ncn(/N=C/c3ccc(-c4ccccc4)o3)c2cc1C	inactive: 2.3%	–
O=C(Nc1nc(NC(=O)c2ccco2)n(-c2ccccc2)n1)c1ccccc1	–	inconclusive: 8.91 µM [inhibitor, partial curve, poor fit]
Cc1cc(C)n(-c2nc3sc4c(c3c(=O)[nH]2)CCCC4)n1	–	inconclusive: 1.58 µM [inhibitor, full curve]
O=C(Cn1ncc(Cl)c(Cl)c1=O)N1CCOCC1	–	inconclusive: 35.5 µM [inhibitor, single point]
